Columns and labels:
[1] = general procedure: Fmoc solid-phase peptide synthesis; Wang resin; conditions: whole synthesis
[2] = general procedure: Fmoc solid-phase peptide synthesis; 2-CTC

For “NH2-D-Phe-Pro-Arg-Pro-Gly-Gly-Gly-Gly-Asn-Gly-Asp-Phe-Glu-Glu-Ile-Pro-Glu-Glu-Tyr-Leu-OH”, which difficulty met [1] is on record?
Its difficulty met is 1-10% of the peptide product proved alkylated in case of Wang resin.

And the “crude HPLC purity” value ([2]; late stage modification step, HPLC and LC-MS)?
The value was “about 55% purity”.

And the crude yield ([2]; whole synthesis, jointly over steps 2 and 3 (cleavage and global deprotection))?
The crude yield was “about 55%”.

Source: patent publication USRE46830 (dated 2018)
